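Viability assay of Plasmodium falciparum sporozoites; the read-out is not stated. The concentration is filed as 10 mM, unlikely as a test dose, so the dose is not known. The record gives no direction; compounds that gave an IC50 in retests scored well above the rest, so higher reads as lower viability. Strong results were mostly tested again. Of about 34,000 compounds tested this way, about 280 (0.84%) reached 50% or more in at least one test.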

Each number is a percent effect as filed. The record does not define 0% and 100%; most values in the screen are far below 50% and negative numbers occur (in some assays of this library far below -100). The compounds are a random part of those screened. Two or more numbers in one place are separate tests of the same structure; such repeats can differ widely.

* Cc1nc(CNC(=O)NCc2ccc(OCC3CC3)nc2)cs1 : -2.236%
* O=C(O)C(F)(F)F.OCCN1CCC(F)(F)C2(CCN(c3cnccn3)C2)C1 (centres undefined) : -0.1733%
* Cl.NC1CCc2nc(-c3ccncc3)nc(Nc3cccc(F)c3)c2C1 (centres undefined) : 24.77%
* O=C1CCC(=O)N1c1nn(Cc2c(F)cccc2Cl)cc1Cl : 8.9%
* Cc1cccc(-c2noc(CN3CC(n4cc(C)cn4)C3)n2)c1 : -1.145%
* O=C(c1ccoc1)N1CCN(Cc2ccccc2F)CC1 : -3.922%
* Fc1cccc(-c2nc(CN3CCCC(Cn4cncn4)C3)co2)c1 (centres undefined) : 0.8456%
* CC(=O)N1CCC2(C1)CN(C(=O)C1CCOC1)C2 (centres undefined) : -1.664%
* CC(=O)c1cccc(NC(=O)CN2CCCC(C3OCCO3)C2)c1 (centres undefined) : 4.501%
* COCCC(=O)NCc1ccc(-c2ncncc2C(=O)N(C)C)cc1 : 4.235%
* CN(C(=O)CN1CCOC(Cn2cccn2)C1)c1nccs1 (centres undefined) : -0.1778%
* Cn1nc(C(=O)NCc2ccccc2C(F)(F)F)c2c1CCS(=O)(=O)C2 : -16.53% & -28.68%
* c1cncc(OC2CCN(CCn3cc4ccccc4n3)CC2)c1 : -3.939%
* CCOC(=O)CNC(=O)c1cccnc1Oc1ccc(Cl)cc1 : 4.944%
* CC(=O)CC(C)(C)NC(=O)CCN(C)Cc1ccc(Cl)s1 : -16.23%
* [H][C@@]12COC[C@]1([H])[C@@H](OCc1ccccn1)CN2C(=O)c1ccnnc1 : -12.17%
* COCc1c(C(=O)NC2CCCC2)nnn1-c1ccc(C)cc1 : 4.947%
* CC(C)c1cc(NC(=O)CN2CCCC2Cn2cccn2)on1 (centres undefined) : 0.2445%
* CSCCC(Nc1nc(C)cc(C)n1)C(=O)NC(C)(C)CO (centres undefined) : -0.2747%
* O=c1c2cccnc2cnn1CC(O)c1ccc(F)c(F)c1 (centres undefined) : 1.959%
* Cc1nc(C)n(CC2CCCN2CC(=O)NCc2ccco2)n1 (centres undefined) : -14.76%
* CN(C)Cc1ccnc(C2CCCN2Cc2cccc(F)c2F)n1 (centres undefined) : 8.328%
* Fc1cnc(N2CCCC3(CCN(Cc4nccs4)C3)C2)nc1 (centres undefined) : 2.497%
* CNC(=O)CCc1cc(C)nc(C2CCN(C(=O)CN(C)C)CC2)c1 : 7.834%
* O=C1CC(Nc2ccc3nccnc3n2)CN1c1ccccc1 (centres undefined) : -22.14%
* Cc1nn(C)cc1S(=O)(=O)N(C)[C@@H]1CCC[C@@H](n2ccnc2)[C@@H]1O : -4.279%
* CCS(=O)(=O)N1CCC(c2nn(CCN(C)C)c3ncccc23)C1 (centres undefined) : 6.214%
* Cc1ncsc1C(=O)N1CCCC(c2noc(C(C)C)n2)C1 (centres undefined) : -7.839%
* Cc1ccc(C(=O)N2CCN(Cc3cccs3)CC2)c(=O)[nH]1 : 7.457%
* O=C(NCc1nncn1-c1ccccc1)C1CCCCC1 : 3.348%
* CCOCCCNC(=O)Nc1ccc(F)c(C(N)=O)c1 : 0.3376%
* CCOc1ccc(C(=O)N2CCN(c3nccn3C)CC2)cc1.Cl : 2.954%
* O=C(O)C(F)(F)F.O=C(O)C(F)(F)F.[H][C@@]12C[C@@H](Oc3cncnc3)CN1CCN(c1ncccn1)C2 : 2.654%
* Cc1cc2c(cc1Cl)C=CC1(CCN(CC(=O)NC3CCCC3)CC1)O2 : 15.09%
* Cc1nn(C)c(C)c1C1COCCN1c1ncnc2sccc12 (centres undefined) : -17.38%
* COCc1noc(C2(c3ccc(F)cc3)CCOCC2)n1 : 6.706%
* CC(C)C(C)NC(=O)Nc1ccc(CS(=O)(=O)C(C)C)cc1 (centres undefined) : -16.5% & 0.9848% & -31.86%
* Cn1cc(N)c(-c2nnc3n2CCCC3)n1 : 10.81%
* [H][C@]12CN(c3ccccn3)CCN1C[C@H](c1ccccc1)[C@H]2CO : -3.349%
* CC(C)n1ccnc1C1CCCN(c2ccnc3ccccc23)C1 (centres undefined) : 7.082%
* Cc1cc(C)n(-c2ccc(CNCc3ccc(C)o3)cn2)n1 : 5.727%
* O=C(O)C(F)(F)F.O=C(O)C(F)(F)F.[H][C@@]12CCCO[C@]1([H])[C@H](N(C)Cc1ccco1)CN2Cc1ccc(OC)cc1 : -12.34%
* CC(CO)CN(Cc1ccccc1)Cc1c[nH]cn1 (centres undefined) : -22.78% & -29.33%

4 of the entries, repeated:

{"smiles": "CC(C)C(C)NC(=O)Nc1ccc(CS(=O)(=O)C(C)C)cc1", "stereo": "centres undefined", "effect": "-16.5 & 0.9848 & -31.86"}
{"smiles": "CC(C)n1ccnc1C1CCCN(c2ccnc3ccccc23)C1", "stereo": "centres undefined", "effect": 7.082}
{"smiles": "Cc1nc(CNC(=O)NCc2ccc(OCC3CC3)nc2)cs1", "effect": -2.236}
{"smiles": "c1cncc(OC2CCN(CCn3cc4ccccc4n3)CC2)c1", "effect": -3.939}

Measurements from “University of Dundee, Small-Polar-MMV Screening Library” (2021), ChEMBL document CHEMBL3988442.